# PubChem BioAssay AID445 (National Center for Advancing Translational Sciences (NCATS), 2006)
# Some of the results follow. Further columns of the screen follow, without active or inactive calls. The list favours compounds with an active or inconclusive main result. The note in brackets gives the kind of curve behind each potency; many fits are weak.
# Experiment: IkB Signaling
# Conditions: ABC-DLBCL IkBa-CBG/CBR dual luciferase ratio (green luciferase fused to IkBa over red control in OCI-Ly3 lymphoma cells), 4 h; measured here: control luc red channel unless noted
# How it was run: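 Curves were fitted separately to fusion (green), unfused (red) and ratio luminescence, then classed by r2, magnitude and activity. Cells: OCI-Ly3, 4 h compound plus doxycycline at 37C; 10 uM MG-132 defined full response.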
row,SMILES,AC50
1,COC(=O)c1scc(-c2ccc(C)cc2)c1S(=O)(=O)Nc1cc(Cl)ccc1C,"12.6 µM [falling, partial curve]"
2,CCc1ccc(S(=O)(=O)c2cn(CC(=O)Nc3ccc(C)cc3)c3ccccc3c2=O)cc1,"12.6 µM [falling, partial curve]"
3,CCOC(=O)c1[nH]c2c(c1Cc1ccccc1)C(=O)CC(c1ccc(Cl)cc1)C2 (stereo not drawn),"3.98 µM [falling, full curve]"
4,Nc1c(-c2ccccc2)n[nH]c1-c1ccccc1,"5.01 µM [falling, partial curve]"
5,COc1cccc(C(c2sc3nc(-c4ccco4)nn3c2O)N2CCC(O)CC2)c1 (stereo not drawn),"0.501 µM [rising, partial curve]"
6,CCOc1ccc(CCNC(=O)c2ccc3c(Cl)c4c(nc3c2)CCCC4)cc1,"3.16 µM [falling, full curve]"
7,CCOc1ccccc1NC(=O)c1sc2nc3n(c(=O)c2c1C)CCCCC3,"25.1 µM [falling, single point]"
8,Cc1ccc(-c2nc3scc(CCNC(=O)Cc4ccc(Cl)cc4)n3n2)cc1,"20 µM [falling, partial curve]"
9,CCOc1ccc(N(C(=O)CC(C)C)S(=O)(=O)c2ccc3c(c2)oc(=O)n3C)cc1,"15.8 µM [falling, partial curve]"
10,CCOc1ccc(CC(=O)NCCc2csc(-c3ccc(C)cc3)n2)cc1,"31.6 µM [falling, single point]"
11,CCN(CC)c1ccc(NS(=O)(=O)c2ccc(-c3cnc(C4CC4)o3)cc2)c(C)c1,"20 µM [falling, partial curve]"
12,Cc1noc(C)c1S(=O)(=O)N(CC(=O)NCc1ccc2c(c1)OCO2)c1ccc(C(C)C)cc1,"15.8 µM [falling, partial curve]"
13,CCC1CN(C(=O)N2CCC(C(=O)NCCc3ccc(Cl)cc3)CC2)c2ccccc2O1 (stereo not drawn),"5.01 µM [rising, partial curve]"
14,CCCn1c(SCc2nc(-c3ccc(OC)cc3OC)no2)nnc1-c1ccc(Cl)cc1,"20 µM [falling, single point]"
15,Cc1ccc(NC(=O)Cn2cc(C(=O)C3CC3)c3ccccc32)cc1,"39.8 µM [rising, single point]"
16,COc1ccc(-c2noc(CN(C(=O)COc3cc(C)c(Br)c(C)c3)C(C)C)n2)cc1,"25.1 µM [falling, single point]"
17,COc1cccc(CNC(=O)c2ccc3nc(N4CCCCC4)sc3c2)c1OC,"39.8 µM [falling, single point]"
18,Cc1ccc(CN2CCSc3ccc(C(=O)N4CCN(c5ccc(Cl)cc5)CC4)cc32)cc1,"7.94 µM [falling, partial curve]"
19,COc1ccccc1NC(=O)c1cc(S(=O)(=O)NCCc2ccccc2)ccc1F,"31.6 µM [falling, partial curve, poor fit]"
20,O=c1c2cccnc2n(Cc2ccccc2F)c(=O)n1Cc1ccc(F)cc1,"39.8 µM [falling, single point]"
21,CCCCN1C(=O)c2[nH]nc(-c3ccccc3O)c2C1c1cc(Br)c(O)c(OC)c1 (stereo not drawn),"12.6 µM [falling, partial curve]"

# Exported bar-delimited: entries from further up
row | SMILES | AC50
16 | COc1ccc(-c2noc(CN(C(=O)COc3cc(C)c(Br)c(C)c3)C(C)C)n2)cc1 | 25.1 µM [falling, single point]
17 | COc1cccc(CNC(=O)c2ccc3nc(N4CCCCC4)sc3c2)c1OC | 39.8 µM [falling, single point]

# Next part

row,SMILES,AC50
1,CCOc1ccc(C(C)=O)cc1N1C(=O)C2C3C=CC(O3)C2C1=O (stereo not drawn),"10 µM [falling, partial curve]"
2,O=S(=O)(Nc1ccc2nc(-c3ccc(F)cc3)oc2c1)c1ccccc1,"31.6 µM [falling, single point]"
3,O=C(CCn1c(=O)[nH]c2ccsc2c1=O)N1CCN(c2cccc(Cl)c2)CC1,"15.8 µM [falling, partial curve]"
4,CCOc1ccc(-n2c(=O)c3sc4ccccc4c3n(Cc3cccc(C)c3)c2=O)cc1,"0.398 µM [rising, full curve]"
5,COc1ccc(C2C(=O)N(C3CCCCC3)CC(=O)N2CCC2=CCCCC2)cc1 (stereo not drawn),"39.8 µM [falling, single point]"
6,Cc1cccc(N2CCN(C(=O)CCc3c(C)nc4c(c3C)c(=O)n(C)c(=O)n4C)CC2)c1C,"12.6 µM [falling, partial curve]"
7,CC1CCC(NC(=O)c2ccc3c(c2)N(Cc2ccccc2F)C(=O)c2ccccc2S3=O)CC1 (stereo not drawn),"7.94 µM [falling, partial curve]"
8,O=C(NCc1ccccc1)C(=O)NCC(c1ccc2c(c1)OCO2)N1CCOCC1 (stereo not drawn),"0.158 µM [falling, full curve, poor fit]"
9,COc1ccc2c(c1)sc1ncc(C(=O)NCc3ccc(Cl)cc3)c(=O)n12,"0.0398 µM [rising, full curve]"
10,Clc1ccc(-c2cn3ncsc3n2)cc1,"0.501 µM [rising, full curve]"
11,Cc1ccc2c(c1)C(=O)OC(C(=O)Nc1ncc(Cc3ccccc3Cl)s1)C2 (stereo not drawn),"20 µM [falling, partial curve]"
12,CCOc1ccc2c(c1)c(=O)c(C(=O)c1ccccc1)cn2Cc1ccccc1,"25.1 µM [falling, single point]"
13,Cc1ccc(C(=O)Nc2c(C(=O)NC(C)(C)C)oc3ccccc23)cc1,"12.6 µM [falling, partial curve]"
14,CCOC(=O)c1ccc(NC(=O)CSc2c(C(C)C)cnc3c2c(=O)n(C)c(=O)n3C)cc1,"39.8 µM [falling, single point]"
15,O=C(/C=C\Nc1cccc(F)c1)c1ccc2c(c1)OCO2,"7.94 µM [falling, partial curve]"
16,CCOc1nc2c(c(=O)n(C)c(=O)n2C)n1Cc1ccccc1Cl,"20 µM [falling, single point]"
17,CC(C)c1cc(C(=O)Nc2ccc3c(c2)OCO3)no1,"2 µM [falling, full curve]"
18,Cc1cccc(N2C(=O)N(Cc3cc(=O)n4ccccc4n3)c3ccccc3S2(=O)=O)c1,"15.8 µM [falling, single point]"
19,CC(=O)Nc1cc(C(=O)NCc2ccccc2Cl)ccc1Sc1ccc(F)cc1,"31.6 µM [falling, single point]"
20,Cc1cc(C)cc(NC(=O)c2cc(S(=O)(=O)NCCC3=CCCCC3)ccc2F)c1,"20 µM [falling, single point]"
21,CCOc1ccc2nc(N3CCN(C(=O)c4ccc5c(c4)CCCC5)CC3)sc2c1,"0.00794 µM [falling, full curve, poor fit]"

row,SMILES,AC50
1,Cc1cc(OCC(=O)Nc2ccc(C(=O)OC3CCCCC3)cc2)cc(C)c1Cl,"3.98 µM [falling, full curve, poor fit]"
2,CCOC(=O)c1ccc(Oc2nc(NC(C)(C)C)nc(N(C)C)n2)cc1,"12.6 µM [falling, partial curve]"
3,CCN1CCN(c2csc3ccc(C)cc3c2=O)CC1,"0.251 µM [rising, full curve]"
4,Cc1ccccc1-c1noc(-c2cc3ccccc3oc2=O)n1,"7.94 µM [falling, partial curve]"
5,Cc1ccc(-n2ncc(C(=O)Nc3ccc4c(c3)OCCO4)c2C2CCN(C(=O)OC(C)(C)C)CC2)cc1,"15.8 µM [falling, partial curve]"
6,CCOc1cccc(CN2CCN(c3cccc(C(F)(F)F)c3)CC2)c1O,"20 µM [falling, partial curve]"
7,COc1ccc(OCC(=O)N2CCN(c3nnc(-c4ccccc4)c4ccccc34)CC2)cc1,"7.94 µM [falling, partial curve]"
8,CC1CCN(S(=O)(=O)c2ccc3c(c2)oc(=O)n3CC(=O)NC(C)c2ccccc2)CC1 (stereo not drawn),"12.6 µM [falling, partial curve]"
9,CNc1c(NC(=O)c2cc(OC)cc(OC)c2)c(=O)oc2ccccc12,"39.8 µM [falling, single point]"
10,CSc1nc(Nc2cccc(C)c2)c(C#N)c(-c2ccccc2)n1,"39.8 µM [rising, single point]"
11,CCOC(=O)c1cnc2ccc(OC)cc2c1NCCc1ccc(OC)c(OC)c1,"25.1 µM [falling, partial curve]"
12,Cn1c(SCC(=O)N2CCCc3ccccc32)ncc(C(=O)Nc2ccc(F)cc2)c1=O,"20 µM [falling, single point]"
13,CCc1ccc(C(=O)CSC2=C(C#N)C(c3ccco3)C(C(C)=O)=C(C)N2)cc1 (stereo not drawn),"12.6 µM [falling, partial curve]"
14,CCCCNC(=O)c1nn(-c2ccc(C)cc2)c(=O)c2c1c1ccccc1n2C,"39.8 µM [rising, single point]"
15,Cc1cccc(CNC(=O)c2cccc(NC(=O)N3CCSc4ncccc43)c2)c1,"25.1 µM [falling, partial curve]"
16,Cc1ccc2c(c1)C(c1ccccc1)N(C(=O)c1ccccc1F)CC(=O)N2 (stereo not drawn),"1.26 µM [falling, partial curve]"
17,CCOC(=O)c1cccc(NC(=O)c2cc3cc4ccc(C)cc4nc3o2)c1,"2.51 µM [rising, full curve, poor fit]"
18,CCCn1c(SCc2nc(-c3cc(OC)ccc3OC)no2)nnc1-c1ccc(Cl)cc1,"31.6 µM [falling, single point]"
19,COc1cc(C2C(=O)N(C3CCCCCC3)CC(=O)N2CCC2=CCCCC2)ccc1OC(C)C (stereo not drawn),"6.31 µM [falling, partial curve]"
20,O=C(Nc1ccccc1Cl)c1cc(S(=O)(=O)N2CCC3(CC2)OCCO3)ccc1F,"20 µM [falling, single point]"
21,COc1ccccc1-c1noc(-c2ccccc2)n1,"12.6 µM [falling, partial curve]"
